Laboratory results taken from article PMC5460281.
No constants are given. Whether binding was seen depends on the method and setting. In cells and extracts the contact can be indirect. Some results given as binding are weak or reduced against the parent protein; the word gives no strength.

The chains behind the UniProt entries cited, without tags or fusion partners.
UniProt P35222: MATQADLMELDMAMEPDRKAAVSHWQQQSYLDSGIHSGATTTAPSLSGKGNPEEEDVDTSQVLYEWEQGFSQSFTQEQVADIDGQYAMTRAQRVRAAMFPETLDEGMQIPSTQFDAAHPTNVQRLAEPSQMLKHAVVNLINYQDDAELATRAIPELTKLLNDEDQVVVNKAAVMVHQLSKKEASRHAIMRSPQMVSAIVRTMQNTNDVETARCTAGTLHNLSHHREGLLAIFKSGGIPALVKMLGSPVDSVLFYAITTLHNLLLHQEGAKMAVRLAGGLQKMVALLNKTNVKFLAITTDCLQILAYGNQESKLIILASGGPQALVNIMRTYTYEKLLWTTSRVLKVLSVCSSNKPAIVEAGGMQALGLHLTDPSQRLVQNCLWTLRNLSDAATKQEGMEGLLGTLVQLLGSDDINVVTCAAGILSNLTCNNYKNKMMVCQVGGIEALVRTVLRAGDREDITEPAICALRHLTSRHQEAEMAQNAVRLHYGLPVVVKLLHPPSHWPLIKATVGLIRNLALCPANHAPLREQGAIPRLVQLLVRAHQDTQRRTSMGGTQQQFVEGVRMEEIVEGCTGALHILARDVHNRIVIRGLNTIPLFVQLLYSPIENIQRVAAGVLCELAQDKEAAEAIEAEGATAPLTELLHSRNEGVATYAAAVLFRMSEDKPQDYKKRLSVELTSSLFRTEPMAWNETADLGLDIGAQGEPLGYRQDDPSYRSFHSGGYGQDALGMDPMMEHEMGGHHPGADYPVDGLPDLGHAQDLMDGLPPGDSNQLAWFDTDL

Molecular target: T1, Protocadherin 18 (human (endogenous in NCM460)) (UniProt Q9HCL0)
T1 sequence: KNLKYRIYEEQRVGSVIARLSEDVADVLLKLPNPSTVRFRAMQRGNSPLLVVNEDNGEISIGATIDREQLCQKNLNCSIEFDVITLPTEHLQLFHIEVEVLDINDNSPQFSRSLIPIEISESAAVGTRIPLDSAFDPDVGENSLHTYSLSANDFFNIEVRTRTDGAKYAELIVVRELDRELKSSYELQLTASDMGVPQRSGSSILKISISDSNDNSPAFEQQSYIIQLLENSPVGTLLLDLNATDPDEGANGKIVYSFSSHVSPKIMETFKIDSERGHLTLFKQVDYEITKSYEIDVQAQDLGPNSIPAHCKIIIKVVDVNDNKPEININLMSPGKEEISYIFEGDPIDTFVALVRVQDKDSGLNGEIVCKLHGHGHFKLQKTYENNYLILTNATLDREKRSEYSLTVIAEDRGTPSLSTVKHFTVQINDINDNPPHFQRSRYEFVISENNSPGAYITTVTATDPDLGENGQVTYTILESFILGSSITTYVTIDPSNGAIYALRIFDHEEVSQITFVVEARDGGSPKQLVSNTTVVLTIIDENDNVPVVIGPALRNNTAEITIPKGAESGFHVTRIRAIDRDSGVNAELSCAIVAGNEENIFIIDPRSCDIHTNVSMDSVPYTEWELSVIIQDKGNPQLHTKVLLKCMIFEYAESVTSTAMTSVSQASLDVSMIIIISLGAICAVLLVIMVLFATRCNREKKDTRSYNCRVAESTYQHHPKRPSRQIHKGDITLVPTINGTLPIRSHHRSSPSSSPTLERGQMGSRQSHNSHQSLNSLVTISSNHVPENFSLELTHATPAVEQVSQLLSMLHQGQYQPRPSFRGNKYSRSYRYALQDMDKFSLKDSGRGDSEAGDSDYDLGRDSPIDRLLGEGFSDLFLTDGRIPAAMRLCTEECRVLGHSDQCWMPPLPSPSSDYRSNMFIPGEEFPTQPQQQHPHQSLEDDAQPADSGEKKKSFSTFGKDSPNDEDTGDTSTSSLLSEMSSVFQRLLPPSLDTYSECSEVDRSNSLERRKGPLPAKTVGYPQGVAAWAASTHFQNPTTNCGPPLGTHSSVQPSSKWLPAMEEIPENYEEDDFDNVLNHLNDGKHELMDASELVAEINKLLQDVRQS
Assay: co-IP; anti-PCDH18 (2 μg) with RIPA lysates (1.0–1.5 mg protein/ml) of NCM460 cells transfected with siNC or siPCDH18, 4 °C overnight; protein G Agarose 1 h at 4 °C; immunoblot for β-catenin and PCDH18

## β-catenin (from UniProt P35222 1-781)
  binding: binds weakly
